Results are given in words; binding and its absence hold for the method and conditions named. Some entries that bind do so weakly or less than the wild type.
T1: Sep-tRNA:Cys-tRNA synthase (SepCysS), Methanocaldococcus jannaschii (Methanocaldococcus jannaschii) (UniProt Q59072)
T1 sequence (chain, PLP covalently bound to the side chain of Lys234): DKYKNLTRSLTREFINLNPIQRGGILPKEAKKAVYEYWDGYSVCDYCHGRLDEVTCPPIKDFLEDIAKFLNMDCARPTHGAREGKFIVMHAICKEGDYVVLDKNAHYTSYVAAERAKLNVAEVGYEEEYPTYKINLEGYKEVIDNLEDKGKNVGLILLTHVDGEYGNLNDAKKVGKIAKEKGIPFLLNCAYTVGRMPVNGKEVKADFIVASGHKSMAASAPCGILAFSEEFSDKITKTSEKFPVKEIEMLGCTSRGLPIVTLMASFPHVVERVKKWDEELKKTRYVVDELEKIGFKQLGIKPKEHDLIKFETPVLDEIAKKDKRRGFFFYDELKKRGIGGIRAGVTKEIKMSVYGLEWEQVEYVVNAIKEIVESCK

T2: O-phosphoseryl-tRNA synthetase (SepRS), Methanocaldococcus jannaschii (Methanocaldococcus jannaschii) (UniProt Q59054)
T2 sequence: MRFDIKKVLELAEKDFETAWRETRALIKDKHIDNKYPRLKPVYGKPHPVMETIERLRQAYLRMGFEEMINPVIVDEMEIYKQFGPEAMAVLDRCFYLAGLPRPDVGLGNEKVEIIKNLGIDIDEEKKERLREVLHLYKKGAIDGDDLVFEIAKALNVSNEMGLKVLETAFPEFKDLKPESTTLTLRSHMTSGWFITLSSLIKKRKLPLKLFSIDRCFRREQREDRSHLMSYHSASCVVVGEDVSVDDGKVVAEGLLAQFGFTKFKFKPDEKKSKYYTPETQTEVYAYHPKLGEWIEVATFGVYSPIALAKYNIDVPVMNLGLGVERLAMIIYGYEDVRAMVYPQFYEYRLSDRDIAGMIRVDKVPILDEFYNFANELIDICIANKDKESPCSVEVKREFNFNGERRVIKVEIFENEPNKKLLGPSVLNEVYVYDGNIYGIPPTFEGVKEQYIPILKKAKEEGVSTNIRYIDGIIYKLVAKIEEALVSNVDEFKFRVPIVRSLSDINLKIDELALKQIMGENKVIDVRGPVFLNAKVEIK


How the values were obtained:
[1] = biological target: T1, Sep-tRNA:Cys-tRNA synthase (SepCysS), Methanocaldococcus jannaschii (Methanocaldococcus jannaschii); test: crystal structure; SepCysE-SepCysS mixed with tRNA^Cys at a molar ratio of 1:1.2, protein 16 mg/ml; 0.1 M MES pH 5.0, 2.4 M ammonium sulfate; 2.6 Å; PDB 5X6B; both purified
[2] = biological target: T1, Sep-tRNA:Cys-tRNA synthase (SepCysS), Methanocaldococcus jannaschii (Methanocaldococcus jannaschii); test: negative stain electron microscopy; purified wild type and del_linker1 transsulfursome adsorbed on carbon-coated grids; 20 mM HEPES-KOH pH 8.0, 200 mM KCl, 5 mM MgCl2; uranyl formate; class averaging; both purified
[3] = biological target: T2, O-phosphoseryl-tRNA synthetase (SepRS), Methanocaldococcus jannaschii (Methanocaldococcus jannaschii); test: condition: 100 µM SepRS variants, 400 µM SepCysE variants; SEC; 100 µM SepRS variants incubated with 400 µM SepCysE variants; Superdex 200 10/300 GL; 20 mM HEPES-NaOH pH 7.5, 300 mM NaCl, 10% glycerol; both purified

Binder | binding [1] | binding [2] | binding [3]
SepCysE (SepRS/SepCysS pathway enhancer), Methanocaldococcus jannaschii (natural protein, SepCysE of Methanocaldococcus jannaschii; wild type) MRVEYSKDLIRKGISTISQLKKAKIRVEKDDKKISYKDAKPGKIDVNEFKKAIYLLIEADDFLYKKAPKHELNEEEAKEFCKLIIKCQEHLNKILANFGFEFEEKEIDEGALYIVSNKKLFKKLKNKNPNLKVVCTEGMLDIEDMRAIGVPEKALEGLKKKVEIARKNVERFIEKYKPEKIFVVVEDDKDELLYLRAKNLYNAEKLDADEILD | binds | binds | 
SepCysE(del_linker1) of M. jannaschii, 10 residues of linker1 truncated (natural protein, Methanocaldococcus jannaschii, source: E. coli B834(DE3) plus pRARE2, purified within the transsulfursome (same procedure as the wild type)) MRVEYSKDLIRKGISTISQLKKAKSYKDAKPGKIDVNEFKKAIYLLIEADDFLYKKAPKHELNEEEAKEFCKLIIKCQEHLNKILANFGFEFEEKEIDEGALYIVSNKKLFKKLKNKNPNLKVVCTEGMLDIEDMRAIGVPEKALEGLKKKVEIARKNVERFIEKYKPEKIFVVVEDDKDELLYLRAKNLYNAEKLDADEILD |  | binds | 
SepCysE(ΔN-helix), N-helix deletion mutant of M. jannaschii SepCysE (domain or fragment, UniProt Q58876 25-213) IRVEKDDKKISYKDAKPGKIDVNEFKKAIYLLIEADDFLYKKAPKHELNEEEAKEFCKLIIKCQEHLNKILANFGFEFEEKEIDEGALYIVSNKKLFKKLKNKNPNLKVVCTEGMLDIEDMRAIGVPEKALEGLKKKVEIARKNVERFIEKYKPEKIFVVVEDDKDELLYLRAKNLYNAEKLDADEILD |  |  | no binding

Reference: article PMC5688128, “Structural basis for tRNA-dependent cysteine biosynthesis” (Nature Communications, 2017)
